The text below walks through data of paper PMC4194125.

By UniProt entry, the sequences of proteins in these tests, tags left out.
UniProt P49407: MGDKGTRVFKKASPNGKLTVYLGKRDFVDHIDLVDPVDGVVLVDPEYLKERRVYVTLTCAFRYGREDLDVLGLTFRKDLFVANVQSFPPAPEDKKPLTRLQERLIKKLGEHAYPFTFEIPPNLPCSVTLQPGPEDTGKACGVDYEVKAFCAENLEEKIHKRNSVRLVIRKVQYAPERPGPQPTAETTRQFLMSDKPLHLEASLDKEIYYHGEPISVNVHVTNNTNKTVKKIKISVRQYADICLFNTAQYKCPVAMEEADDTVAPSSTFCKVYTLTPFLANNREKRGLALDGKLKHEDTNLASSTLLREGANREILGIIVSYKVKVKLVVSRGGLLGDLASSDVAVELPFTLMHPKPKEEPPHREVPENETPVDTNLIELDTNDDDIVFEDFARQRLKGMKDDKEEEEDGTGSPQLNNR
UniProt Q16665: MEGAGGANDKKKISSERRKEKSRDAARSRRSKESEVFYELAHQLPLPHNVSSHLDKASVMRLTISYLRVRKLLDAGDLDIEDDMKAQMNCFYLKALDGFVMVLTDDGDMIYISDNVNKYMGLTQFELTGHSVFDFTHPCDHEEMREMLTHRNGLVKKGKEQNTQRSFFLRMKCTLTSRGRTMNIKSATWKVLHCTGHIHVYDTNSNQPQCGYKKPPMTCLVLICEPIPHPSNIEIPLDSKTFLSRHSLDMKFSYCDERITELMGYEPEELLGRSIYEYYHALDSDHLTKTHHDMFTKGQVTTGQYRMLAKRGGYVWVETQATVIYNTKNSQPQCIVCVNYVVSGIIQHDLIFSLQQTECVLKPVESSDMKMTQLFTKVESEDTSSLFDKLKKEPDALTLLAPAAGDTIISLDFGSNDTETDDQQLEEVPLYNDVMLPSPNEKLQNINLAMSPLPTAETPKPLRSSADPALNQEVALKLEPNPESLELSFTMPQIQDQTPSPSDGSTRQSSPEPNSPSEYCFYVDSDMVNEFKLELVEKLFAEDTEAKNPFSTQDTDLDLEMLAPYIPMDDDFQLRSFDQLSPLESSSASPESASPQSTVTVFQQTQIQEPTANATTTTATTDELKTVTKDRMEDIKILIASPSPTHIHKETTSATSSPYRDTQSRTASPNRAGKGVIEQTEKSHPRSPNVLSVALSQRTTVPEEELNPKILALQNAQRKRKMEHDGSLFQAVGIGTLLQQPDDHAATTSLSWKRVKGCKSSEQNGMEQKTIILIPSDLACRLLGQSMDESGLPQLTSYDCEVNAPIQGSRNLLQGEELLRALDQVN

No constants are given. Whether binding was seen depends on the method and setting. In cells and extracts the contact can be indirect. Some results given as binding are weak or reduced against the parent protein; the word gives no strength.

This assay deals with Beta-arrestin1 (human (endogenous in C4-2)) (UniProt P49407). The assay is described as follows: co-IP; nuclear extracts of hypoxia-treated C4-2 cells expressing endogenous levels of ARRB1.

“Hypoxia-inducible factor 1A (from UniProt Q16665 1-826)”: the binding result is reported as “binds”.
